According to publication PMC8783693:
These are yes or no findings as the source states them, for the method shown. Binding seen in cells or lysates may run through a third protein. Some results given as binding are weak or reduced against the parent protein; the word gives no strength.

Amino acid sequences for entries named in this document (tags omitted). Residues count along the entry.
UniProt P06733: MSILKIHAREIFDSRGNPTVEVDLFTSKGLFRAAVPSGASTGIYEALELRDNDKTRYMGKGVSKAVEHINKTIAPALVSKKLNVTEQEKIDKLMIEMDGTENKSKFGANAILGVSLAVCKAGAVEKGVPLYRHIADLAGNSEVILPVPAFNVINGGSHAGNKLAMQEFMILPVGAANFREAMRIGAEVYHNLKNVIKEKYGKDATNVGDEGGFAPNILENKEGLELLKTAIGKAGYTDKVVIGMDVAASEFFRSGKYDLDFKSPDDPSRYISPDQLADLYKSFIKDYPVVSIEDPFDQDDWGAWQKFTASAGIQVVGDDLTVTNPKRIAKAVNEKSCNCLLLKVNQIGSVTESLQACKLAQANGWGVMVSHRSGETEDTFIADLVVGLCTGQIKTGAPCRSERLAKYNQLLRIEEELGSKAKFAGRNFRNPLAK
UniProt Q03405, residues 23-305: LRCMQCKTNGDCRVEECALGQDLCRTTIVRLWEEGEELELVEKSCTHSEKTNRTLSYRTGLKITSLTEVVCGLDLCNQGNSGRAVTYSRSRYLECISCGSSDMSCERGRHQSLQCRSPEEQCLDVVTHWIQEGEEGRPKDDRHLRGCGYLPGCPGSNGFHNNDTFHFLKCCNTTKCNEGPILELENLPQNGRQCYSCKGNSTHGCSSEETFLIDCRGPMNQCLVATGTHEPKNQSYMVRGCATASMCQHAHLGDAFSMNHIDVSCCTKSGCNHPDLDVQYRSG

Target: enolase-1 (ENO) (human (endogenous in primary human lung fibroblasts)) (UniProt P06733)
Assay: co-IP; membrane fractions of fibroblasts treated with TGF-β1 with or without peptide E4, incubated overnight at 4°C with anti-ENO-1 antibody or isotype control; precipitated with protein G agarose beads for 1 hour at 4°C; uPAR and ENO detected by immunoblotting

binding: binds
Substance: urokinase plasminogen activator receptor (uPAR) (from UniProt Q03405 23-305)
